# Results taken from patent US9874565B2, “Oncogene associated with human cancers and methods of use thereof” (Dana-Farber Cancer Institute, Inc., priority 2013, dated 2018).
# At least one structure is not confirmed: it was looked up by name or label, or the drawing left a doubt.
# Tested on: hMECs transformed with MECP2
# Test: growth inhibition of hMECs transformed with MECP2 compared with isogenic cells transformed by activated RAS
# Assay type: cell-based, human
# Details: DNA methylation inhibitors; MECP2-transformed vs activated RAS-transformed isogenic hMECs
# From the text: Because MECP2 only binds to methylated CpG sequences and hydroxymethylcytosine, and because data have shown that oncogenic activation of MECP2 depends upon its DNA-binding region, […] it is likely that the oncogenic activity of MECP2 is mediated by binding of the protein to methylated CpG sequences of hydroxymethylated cytosine. For this reason, it was investigated whether DNA methylation inhibitors hinder cell growth in a MECP2-dependent manner. DNA methylation inhibitors prevent the formation of both methylated CpG sequences and hydroxymethylated cytosine.
# MECP2 is known to be present in a complex with Class I histone deacetylases. […] This led to investigation of whether MECP2-transformed cells were particularly vulnerable to HDAC inhibitors. […] Furthermore, it was shown that combined treatment with the DNA methylation inhibitor 5-azacytdine and the HDAC inhibitor Trichostatin A is synergistic in a hMEC experimental system.
smiles,measurement,value
Nc1ncn([C@H]2C[C@H](O)[C@@H](CO)O2)c(=O)n1 [decitabine],sensitivity of hMECs transformed with MECP2 relative to isogenic cells transformed by activated RAS,an order of magnitude more sensitive
